# For at least one compound, name, drawing or mass did not settle the structure.
# Legend:
# [1] = system: M14; experiment: NCI-60 cytotoxicity, M14; assay type: cell-based, human; settings: M14 (Melanoma), 72 h
# Description: (§1) Briefly, human NCI-60 cancer cell lines were counted with a Vi-CELL Cell Viability Analyzer (Beckman Coulter), resuspended in RPMI-1640 medium containing 10% FBS and 1% penicillin/streptomycin and dispensed in wells of 96-well microplates (3000 cells per well for solid tumor and 5000 per well for blood tumor cells) using an epMotion 5075 liquid handler (Eppendorf) under a sterile condition, followed by incubation overnight at 37° C. in 5% (v/v) CO2. Cells were exposed to compounds in a dose-dependent manner for 72 h. An MTS dye (20 uL per well) was added to each well. Cell viability was determined by tetrazolium conversion to its […] dye. […] Each experiment was performed in duplicate. […] H9 cells are more sensitive to drugs, therefore instead of 72 hours, we choose 48 hour the incubation time for H9 cells.
# (§2) IC50 values were determined using […] software (Biosoft).
# [2] = system: MCF7; experiment: NCI-60 cytotoxicity, MCF7; assay type: cell-based, human; settings: MCF7 (Breast), 72 h
# Description: as §1, §2
compound,measurement,setting,value
O=C1NC(=NCc2cccs2)S/C1=C\c1ccc2ncccc2c1 [Compound A10],IC50,[1],10 µM
same,IC50,[2],10 µM

# Reference: patent US20230190717A1, “P38 GAMMA INHIBITORS AND METHOD OF USE THEREOF” (City of Hope, priority 2017, published 2023)
